The list shows a part of the results. Most values lie at the level of the controls, where differences are scatter.
These targets were tested with CN[C@@H]1C[C@H]2O[C@@](C)([C@@H]1OC)n1c3ccccc3c3c4c(c5c6ccccc6n2c5c31)C(=O)NC4 [staurosporine] (assay: log2 fold change of tryptic peptide abundance, ligand vs vehicle (limited proteolysis) (log2 ratio); higher = more trypsin-susceptible (destabilized)). Settings: ligand concentration: 20 uM; sample: mouse liver crude lysate; replicate design: treated separately.

The chains behind the UniProt entries cited, without tags or fusion partners. Where a name states a change or a piece, a line headed by the entry shows the natural chain unless it says otherwise.
UniProt Q6R3M4: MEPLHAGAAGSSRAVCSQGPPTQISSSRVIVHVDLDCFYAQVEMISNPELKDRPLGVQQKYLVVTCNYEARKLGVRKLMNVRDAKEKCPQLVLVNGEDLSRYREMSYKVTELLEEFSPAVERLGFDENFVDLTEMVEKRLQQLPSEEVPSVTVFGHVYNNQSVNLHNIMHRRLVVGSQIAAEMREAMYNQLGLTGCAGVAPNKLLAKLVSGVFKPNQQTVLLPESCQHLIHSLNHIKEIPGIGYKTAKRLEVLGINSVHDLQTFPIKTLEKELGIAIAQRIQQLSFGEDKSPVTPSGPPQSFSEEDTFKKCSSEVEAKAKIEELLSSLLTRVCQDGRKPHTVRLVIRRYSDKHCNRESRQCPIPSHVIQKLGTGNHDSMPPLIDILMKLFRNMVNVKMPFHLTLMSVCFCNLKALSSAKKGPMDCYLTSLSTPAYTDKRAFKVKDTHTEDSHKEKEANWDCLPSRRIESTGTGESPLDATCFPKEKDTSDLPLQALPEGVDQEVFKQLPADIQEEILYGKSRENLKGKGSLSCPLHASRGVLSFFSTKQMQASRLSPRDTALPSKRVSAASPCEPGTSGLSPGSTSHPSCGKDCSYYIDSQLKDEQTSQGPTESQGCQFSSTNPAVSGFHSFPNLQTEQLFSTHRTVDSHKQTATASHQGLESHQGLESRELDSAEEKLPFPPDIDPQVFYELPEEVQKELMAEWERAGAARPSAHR
UniProt Q6DFX2: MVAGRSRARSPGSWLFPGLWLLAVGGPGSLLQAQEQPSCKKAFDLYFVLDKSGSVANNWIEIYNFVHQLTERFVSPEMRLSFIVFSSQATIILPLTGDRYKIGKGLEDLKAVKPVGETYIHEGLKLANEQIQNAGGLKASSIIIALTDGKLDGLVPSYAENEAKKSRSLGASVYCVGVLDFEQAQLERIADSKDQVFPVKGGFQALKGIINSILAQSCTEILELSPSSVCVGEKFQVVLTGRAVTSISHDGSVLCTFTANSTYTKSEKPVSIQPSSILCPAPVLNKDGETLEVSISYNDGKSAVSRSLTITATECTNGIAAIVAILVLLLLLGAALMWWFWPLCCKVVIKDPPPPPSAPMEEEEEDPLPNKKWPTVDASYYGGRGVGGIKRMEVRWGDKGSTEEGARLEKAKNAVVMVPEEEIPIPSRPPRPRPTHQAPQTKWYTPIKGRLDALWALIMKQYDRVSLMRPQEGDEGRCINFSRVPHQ
UniProt Q6A037: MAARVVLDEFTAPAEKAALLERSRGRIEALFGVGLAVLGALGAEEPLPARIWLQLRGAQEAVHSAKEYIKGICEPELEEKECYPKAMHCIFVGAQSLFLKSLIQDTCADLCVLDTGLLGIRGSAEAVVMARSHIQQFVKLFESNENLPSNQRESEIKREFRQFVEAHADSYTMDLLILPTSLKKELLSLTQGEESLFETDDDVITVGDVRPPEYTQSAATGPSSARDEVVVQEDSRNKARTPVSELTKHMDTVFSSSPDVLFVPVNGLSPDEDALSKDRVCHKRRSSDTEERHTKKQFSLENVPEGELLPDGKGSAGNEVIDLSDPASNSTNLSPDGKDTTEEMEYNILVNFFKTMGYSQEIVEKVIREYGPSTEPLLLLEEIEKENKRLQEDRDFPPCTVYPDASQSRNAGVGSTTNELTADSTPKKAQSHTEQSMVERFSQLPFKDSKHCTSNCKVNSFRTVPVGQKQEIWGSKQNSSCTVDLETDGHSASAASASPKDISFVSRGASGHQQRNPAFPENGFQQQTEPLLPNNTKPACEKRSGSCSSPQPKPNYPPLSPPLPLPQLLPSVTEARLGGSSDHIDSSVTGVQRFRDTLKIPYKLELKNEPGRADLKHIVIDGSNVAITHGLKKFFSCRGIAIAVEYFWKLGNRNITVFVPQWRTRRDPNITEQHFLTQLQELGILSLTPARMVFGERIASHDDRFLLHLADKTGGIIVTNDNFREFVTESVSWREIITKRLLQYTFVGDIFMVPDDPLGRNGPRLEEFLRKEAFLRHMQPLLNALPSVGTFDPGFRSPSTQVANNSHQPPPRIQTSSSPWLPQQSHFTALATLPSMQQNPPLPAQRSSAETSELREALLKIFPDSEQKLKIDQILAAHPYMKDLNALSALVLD
UniProt Q6P5D8: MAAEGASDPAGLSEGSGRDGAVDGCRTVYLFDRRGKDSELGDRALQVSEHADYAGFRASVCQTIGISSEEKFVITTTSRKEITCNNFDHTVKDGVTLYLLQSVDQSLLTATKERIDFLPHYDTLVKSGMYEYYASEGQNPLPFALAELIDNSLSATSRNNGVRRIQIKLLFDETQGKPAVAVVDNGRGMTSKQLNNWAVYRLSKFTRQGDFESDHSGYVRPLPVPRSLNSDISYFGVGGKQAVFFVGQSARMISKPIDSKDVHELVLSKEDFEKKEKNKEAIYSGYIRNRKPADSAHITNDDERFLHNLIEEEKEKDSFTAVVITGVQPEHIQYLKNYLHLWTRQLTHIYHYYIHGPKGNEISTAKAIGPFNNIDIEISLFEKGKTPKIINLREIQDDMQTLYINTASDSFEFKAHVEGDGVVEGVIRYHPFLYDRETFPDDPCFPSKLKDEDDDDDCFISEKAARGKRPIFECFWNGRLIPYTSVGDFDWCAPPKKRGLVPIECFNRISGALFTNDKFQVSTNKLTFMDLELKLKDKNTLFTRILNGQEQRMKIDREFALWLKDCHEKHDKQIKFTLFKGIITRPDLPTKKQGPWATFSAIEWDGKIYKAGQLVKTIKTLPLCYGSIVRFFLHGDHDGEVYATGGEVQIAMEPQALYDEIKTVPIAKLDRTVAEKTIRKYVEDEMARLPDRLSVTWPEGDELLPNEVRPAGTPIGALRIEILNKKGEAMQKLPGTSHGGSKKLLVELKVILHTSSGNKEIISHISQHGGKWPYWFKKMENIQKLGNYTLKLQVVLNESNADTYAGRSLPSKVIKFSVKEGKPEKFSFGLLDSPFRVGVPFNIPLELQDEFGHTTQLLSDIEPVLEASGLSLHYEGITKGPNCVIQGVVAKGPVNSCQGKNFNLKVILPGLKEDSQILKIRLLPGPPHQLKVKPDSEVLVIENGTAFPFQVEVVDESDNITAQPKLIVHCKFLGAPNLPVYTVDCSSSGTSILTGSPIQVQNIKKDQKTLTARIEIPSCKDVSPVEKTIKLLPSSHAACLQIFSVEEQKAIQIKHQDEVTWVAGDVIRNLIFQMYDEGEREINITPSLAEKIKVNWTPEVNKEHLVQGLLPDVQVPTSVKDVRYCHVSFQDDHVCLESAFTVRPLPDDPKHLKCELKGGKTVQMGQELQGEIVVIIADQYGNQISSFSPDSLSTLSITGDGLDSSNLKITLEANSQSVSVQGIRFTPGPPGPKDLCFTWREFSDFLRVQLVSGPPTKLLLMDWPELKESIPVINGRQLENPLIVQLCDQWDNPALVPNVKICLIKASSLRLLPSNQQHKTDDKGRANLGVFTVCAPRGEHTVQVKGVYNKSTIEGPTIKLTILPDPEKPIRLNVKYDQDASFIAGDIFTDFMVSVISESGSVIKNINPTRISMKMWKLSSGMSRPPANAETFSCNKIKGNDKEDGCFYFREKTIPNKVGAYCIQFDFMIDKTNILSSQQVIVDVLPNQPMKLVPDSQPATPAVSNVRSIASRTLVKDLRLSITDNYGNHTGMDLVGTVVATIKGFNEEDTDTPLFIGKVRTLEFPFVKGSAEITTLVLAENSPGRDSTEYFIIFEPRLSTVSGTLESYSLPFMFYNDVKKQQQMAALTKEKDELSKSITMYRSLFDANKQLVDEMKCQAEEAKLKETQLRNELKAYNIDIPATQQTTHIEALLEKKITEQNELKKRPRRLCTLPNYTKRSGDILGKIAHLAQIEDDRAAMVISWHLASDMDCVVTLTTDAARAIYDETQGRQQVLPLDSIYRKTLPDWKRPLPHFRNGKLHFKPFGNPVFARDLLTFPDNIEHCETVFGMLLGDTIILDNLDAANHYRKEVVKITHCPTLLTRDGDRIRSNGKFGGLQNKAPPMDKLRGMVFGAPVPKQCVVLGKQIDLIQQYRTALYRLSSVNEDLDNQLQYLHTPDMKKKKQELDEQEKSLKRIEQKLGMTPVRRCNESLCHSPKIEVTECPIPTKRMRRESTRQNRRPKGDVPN
UniProt Q6PD29: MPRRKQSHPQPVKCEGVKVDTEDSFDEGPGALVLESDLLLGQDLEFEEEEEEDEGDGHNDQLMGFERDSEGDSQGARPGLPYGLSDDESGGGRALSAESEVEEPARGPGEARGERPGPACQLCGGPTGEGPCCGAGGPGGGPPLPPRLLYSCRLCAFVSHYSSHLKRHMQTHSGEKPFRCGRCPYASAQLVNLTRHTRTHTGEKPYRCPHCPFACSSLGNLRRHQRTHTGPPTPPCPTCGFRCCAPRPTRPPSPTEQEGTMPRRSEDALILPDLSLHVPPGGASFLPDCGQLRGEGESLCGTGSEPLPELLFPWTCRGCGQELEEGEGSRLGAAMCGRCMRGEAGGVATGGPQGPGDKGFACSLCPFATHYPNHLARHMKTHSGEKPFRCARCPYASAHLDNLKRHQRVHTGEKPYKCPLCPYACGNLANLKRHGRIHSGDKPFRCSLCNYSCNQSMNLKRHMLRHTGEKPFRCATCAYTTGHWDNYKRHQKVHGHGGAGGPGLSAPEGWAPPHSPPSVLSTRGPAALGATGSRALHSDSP

Row | Target | log2 fold change
1 | UniProt Q6R3M4 (peptide sequence: GSLSCPLHASR, peptide start residue: 529) | 0.419
2 | UniProt Q6DFX2 (peptide sequence: VSLMRPQEGDEGR, peptide start residue: 465) | 0.136
3 | UniProt Q6A037 (peptide sequence: KAQSHTEQSMVER, peptide start residue: 428) | -0.244
4 | UniProt Q6P5D8 (peptide sequence: KQELDEQEK, peptide start residue: 1943) | -0.438
5 | UniProt Q6PD29 (peptide sequence: GPAALGATGSR, peptide start residue: 524) | -0.174
